# Measurements published in PubChem BioAssay (NCATS).
# Sequences of proteins named here, by UniProt entry; tags and fusion partners are left off. A change or cut given only in a name is not applied to a line headed by its entry.
# UniProt P50135: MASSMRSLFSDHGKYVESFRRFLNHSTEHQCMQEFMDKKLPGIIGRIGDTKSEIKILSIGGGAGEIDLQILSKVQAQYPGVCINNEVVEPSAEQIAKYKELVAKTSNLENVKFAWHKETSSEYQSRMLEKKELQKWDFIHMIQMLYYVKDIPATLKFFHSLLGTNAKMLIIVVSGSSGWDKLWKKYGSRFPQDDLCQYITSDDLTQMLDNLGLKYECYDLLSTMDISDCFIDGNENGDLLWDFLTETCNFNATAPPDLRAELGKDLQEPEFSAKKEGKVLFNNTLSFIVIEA
# This is one part of the list. Further columns of the screen follow, without active or inactive calls. For some assays here: Compounds called inactive in the main read-out are mostly missing here. Words in brackets tell the shape of the fitted curve; partial curves, single points and poor fits give uncertain potencies.
# Legend:
# [1] = Validation of Assay for Modulators of Lamin A Splicing (AID 1459); details: Lamin A splicing dual RFP/GFP fluorescence reporter, ratio
# Procedure, shortened: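 Splicing correction is reported by an EGFP-containing lamin A minigene in stably transfected S3 HeLa cells, while DsRed2 controls for viability and nonspecific signal. Cells are exposed to compounds for 48 hrs before the GFP over RFP ratio is taken.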
# [2] = qHTS Assay for Lipid Storage Modulators (AID 1519); details: Drosophila S3 cells, BODIPY lipid droplet/cell ratio, laser cytometry, cells loaded with oleic acid; for AC50: measured here: lipid (BODIPY) channel AC50
# Procedure, shortened: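 Cells seeded at 5,000 per well were treated with compounds over a concentration series and loaded with oleic acid (400 uM, as added). Lipid droplet fluorescence (488 nm excitation, 500-530 nm channel) was read by laser-scanning cytometry and normalized to 20 uM Triacsin C.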
# [3] = qHTS Validation Assay to Find Inhibitors of Chronic Active B-Cell Receptor Signaling (AID 485345); details: ABC-DLBCL cells, chronic BCR signaling reporter
# Procedure, shortened: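 TMD8 ABC-DLBCL cells stably carrying doxycycline-inducible IkappaBalpha–green luciferase fusion plus unfused red luciferase; compounds 46 uM to 3 nM, 4 h at 37C with doxycycline. Corrected green/red luminescence ratio normalized to 10 uM MG-132 and basal cell wells; curves fitted.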
# [4] = Nrf2 qHTS screen for inhibitors: Validation (AID 493153); details: A549 ARE-Fluc reporter, 18-24 h; AC50: CellTiter-Fluor fluorescence read, measured here: cytotoxicity CellTiter-Fluor AC50; viability change: measured here: cytotoxicity max response
# Procedure, shortened: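 In this counterscreened reporter format, each well gives two signals: CellTiter-Fluor fluorescence for cytotoxicity and ARE-luciferase luminescence for Nrf2 function. A549 ARE_Fluc cells in 5% FBS OPTI-MEM were exposed to compound titrations for 18-24 h.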
# [5] = qHTS Assay for Modulators of Human Peripheral Myelin Protein 22 (PMP22) Expression/Activity (AID 1967); details: Cell-based PMP22 reporter, dual-color luciferase ratio
# Procedure, shortened: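 Quantitative HTS in a mouse Schwann cell line expressing dual click beetle luciferases: Pmp22 promoter (green) and control EF-alpha promoter (red). After 24h treatment, corrected green/red signal ratio gave %Activity relative to untreated cells.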
# [6] = qHTS drug screen for cell cycle checkpoint inhibitors in PARPi-resistant BRCA-mutant ovarian cancer cell lines. (AID 1963452); details: PEO1/OlaR viability, CellTiter-Glo luminescence, 96 h
# Procedure, shortened: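 PEO1, PEO4 and PEO1/OlaR ovarian cancer cells, 600 per well, exposed 96 h at 37C to a dilution series. Viability read by CellTiter-Glo luminescence, normalized to DMSO and empty wells; activity summarized as Z-AUC.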
# [7] = target: Histamine N-methyltransferase (Homo sapiens) (UniProt P50135); test: Confirmatory Screen for Target Class Profiling of Small Molecule Inhibitors of Methyltransferases (AID 1745852); details: MTase-Glo luminescence, SAH detection, recombinant enzyme; measured here: HNMT inhibition potency
# [8] = qHTS for identification of novel therapeutic agents for treatment of microphthalmiaassociated transcription factor (MiT) renal cell carcinoma (RCC) (AID 1963991); details: CellTiter-Glo, 48 h; for z-score: stronger effect = lower value
# Procedure, shortened: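 Viability of three TFE3-fusion renal carcinoma lines measured by CellTiter-Glo after 48 h treatment with each of 1912 compounds at 11 concentrations. Responses scaled between DMSO (100%) and empty wells (0%) before curve fitting.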
# [9] = measured here: cell count channel max response
# [10] = measured here: lipid channel max response
# [11] = measured here: CBG/CBR ratio read-out
# [12] = measured here: CBR control luciferase (viability counter)
# [13] = measured here: green reporter channel AC50, mouse Pmp22 promoter in mouse Schwann cells
# [14] = measured here: red reporter channel AC50, EF-alpha promoter control reporter in MSC80 mouse Schwann cells
smiles,measurement,setting,value
O=C1O/C(=C/Br)CCC1c1cccc2ccccc12 (stereo unspecified),AC50,[1]; measured here: GFP channel,"3.55 µM [falling, full curve]"
same,AC50,[1]; measured here: RFP channel,"4.47 µM [falling, full curve]"
same,max response,[2]; [9],33%
same,max response,[2]; [10],13%
same,AC50,[3]; [11],"10.3 µM [falling, partial curve]"
same,AC50,[3]; [12],"18.4 µM [falling, single point]"
same,viability change,[4],-14.1%
CNC(=O)[C@H]1O[C@@H](n2cnc3c(NCc4ccc(I)cc4)nc(Cl)nc32)[C@H](O)[C@@H]1O,AC50,[1]; measured here: GFP channel,"12.6 µM [falling, partial curve]"
same,AC50,[1]; measured here: RFP channel,"12.6 µM [falling, partial curve]"
same,max response,[2]; [9],-68.3%
same,AC50,[2],"11.2 µM [falling, partial curve, poor fit]"
same,max response,[2]; [10],-70.3%
same,AC50,[5]; [13],"53.6 µM [falling, partial curve]"
same,AC50,[5]; [14],"37.9 µM [falling, partial curve]"
same,viability change,[4],9.59%
CN(C)S(=O)(=O)c1ccc2c(c1)/C(=C/c1cc3c([nH]1)CCCC3)C(=O)N2,AC50,[1]; measured here: GFP channel,"14.1 µM [rising, single point]"
same,AC50,[1]; measured here: RFP channel,"14.1 µM [rising, single point]"
same,AC50,[2],"20 µM [falling, full curve, poor fit]"
same,AC50,[5]; [14],"16.9 µM [falling, full curve, poor fit]"
same,AC50,[3]; [11],"20.6 µM [falling, partial curve]"
same,AC50,[3]; [12],"2.91 µM [falling, full curve]"
same,AC50,[4],"2.91 µM [falling, partial curve, poor fit]"
same,viability change,[4],-22.5%
same,AC50,[6]; measured here: PEO4 viability,"13.8 µM [falling, partial curve, poor fit]"
Fc1ccc(CN(C2=NCCN2)c2c(Cl)cccc2Cl)cc1,AC50,[1]; measured here: GFP channel,"28.2 µM [falling, single point]"
same,AC50,[1]; measured here: RFP channel,"20 µM [falling, partial curve]"
same,max response,[2]; [9],46.3%
same,max response,[2]; [10],43.3%
same,AC50,[5]; [13],"75.7 µM [falling, partial curve]"
same,AC50,[5]; [14],"95.3 µM [falling, single point]"
same,IC50,[7],"24.3 µM [falling, partial curve]"
Nc1ncnc2c1c(-c1ccc(Oc3ccccc3)cc1)cn2C1CCCC1,AC50,[1]; measured here: GFP channel,"10 µM [rising, partial curve]"
same,AC50,[1]; measured here: RFP channel,"10 µM [rising, partial curve]"
same,max response,[2]; [9],-91.2%
same,AC50,[2],"3.55 µM [falling, full curve, poor fit]"
same,max response,[2]; [10],-107%
same,AC50,[5]; [13],"16.9 µM [falling, full curve]"
same,AC50,[5]; [14],"9.53 µM [falling, full curve]"
same,AC50,[3]; [11],"7.31 µM [falling, partial curve]"
same,AC50,[3]; [12],"0.231 µM [falling, full curve]"
same,viability change,[4],2.35%
CC1(C)CCC2=C(O1)c1ccccc1C(=O)C2=O,AC50,[1]; measured here: GFP channel,"25.1 µM [falling, partial curve]"
same,AC50,[1]; measured here: RFP channel,"25.1 µM [falling, partial curve]"
same,max response,[2]; [9],1.23%
same,max response,[2]; [10],-64.3%
same,AC50,[3]; [11],"14.6 µM [falling, partial curve]"
same,AC50,[3]; [12],"29.1 µM [falling, single point]"
same,AC50,[4],"29.1 µM [falling, partial curve, poor fit]"
same,viability change,[4],-27.1%
same,AC50,[6]; measured here: PEO1 parental viability,"19.5 µM [falling, single point]"
same,AC50,[6]; measured here: PEO4 viability,"15.5 µM [falling, single point]"
same,z-score,"[8]; TFE3-RCC UOK109 viability, measured here: UOK109 Z-AUC",0.304
same,z-score,"[8]; TFE3-RCC viability, measured here: UOK124 Z-AUC",0.865
same,AC50,"[8]; TFE3-RCC viability, measured here: UOK124 cell viability","26.4 µM [falling, partial curve]"
same,z-score,"[8]; TFE3-RCC viability, measured here: UOK145 Z-AUC",1.2
same,AC50,"[8]; TFE3-RCC viability, measured here: UOK145 cell viability","37.2 µM [falling, single point]"

# Quoted at random: four records from the list, in no set order.
smiles,measurement,setting,value
Fc1ccc(CN(C2=NCCN2)c2c(Cl)cccc2Cl)cc1,max response,[2]; [10],43.3%
CN(C)S(=O)(=O)c1ccc2c(c1)/C(=C/c1cc3c([nH]1)CCCC3)C(=O)N2,AC50,[4],"2.91 µM [falling, partial curve, poor fit]"
O=C1O/C(=C/Br)CCC1c1cccc2ccccc12 (stereo unspecified),viability change,[4],-14.1%
same,AC50,[1]; measured here: GFP channel,"3.55 µM [falling, full curve]"
